Data published in patent US20230270817A1, “VIMENTIN INHIBITORS” (Filamon Pty Ltd, priority 2020, published 2023).
No constants are given. Whether binding was seen depends on the method and setting. Some entries that bind do so weakly or less than the wild type.

Protein sequences, listed by entry. Tags and fused reporters are not part of them. Lines headed by an entry give the natural chain unless they say otherwise; changes in a name come on top.
UniProt P08670: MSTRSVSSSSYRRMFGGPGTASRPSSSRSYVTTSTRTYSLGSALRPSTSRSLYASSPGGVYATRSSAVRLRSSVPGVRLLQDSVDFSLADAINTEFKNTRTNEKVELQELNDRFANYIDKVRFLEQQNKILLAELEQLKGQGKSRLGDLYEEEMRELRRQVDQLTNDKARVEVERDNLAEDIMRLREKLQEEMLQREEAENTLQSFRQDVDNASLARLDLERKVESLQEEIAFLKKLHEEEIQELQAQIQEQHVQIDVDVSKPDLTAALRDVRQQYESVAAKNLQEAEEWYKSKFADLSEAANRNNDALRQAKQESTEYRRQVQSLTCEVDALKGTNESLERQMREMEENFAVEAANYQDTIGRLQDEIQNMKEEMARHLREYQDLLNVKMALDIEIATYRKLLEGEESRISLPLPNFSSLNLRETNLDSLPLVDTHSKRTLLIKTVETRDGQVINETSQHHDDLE

B1: hGIIA, endogenous, in fixed and permeabilised LNCaP prostate cancer cells (enzyme)
chain: NLVNFHRMIKLTTGKEAALSYGFYGCHCGVGGRGSPKDATDRCCVTHDCCYKRLEKRGCGTKFLSYKFSNSGSRITCAKQDSCRSQLCECDKAAATCFARNKTTYNKKYQYYSNKHCRGSTPRC
B2: human group IIA secreted phospholipase A2 (hGIIA), recombinant, purified from conditioned media of CHO cell line 2B1 (enzyme)
chain: NLVNFHRMIKLTTGKEAALSYGFYGCHCGVGGRGSPKDATDRCCVTHDCCYKRLEKRGCGTKFLSYKFSNSGSRITCAKQDSCRSQLCECDKAAATCFARNKTTYNKKYQYYSNKHCRGSTPRC

Legend:
[1] = biological target: vimentin, endogenous, in fixed and permeabilised LNCaP prostate cancer cells (human) (UniProt P08670); test: FRET/FLIM in LNCaP cells with AF488 anti-vimentin and AF568 anti-hGIIA antibodies
[2] = biological target: vimentin coil 2 fragment (residues 254 to 405), recombinant, His-tagged (human) (UniProt P08670); test: EIA, plate-bound vimentin coil 2, detection with AP-labelled hGIIA-specific monoclonal antibody
[3] = biological target: vimentin coil 2 fragment (residues 254 to 405), recombinant, His-tagged (human) (UniProt P08670); test: EIA, plate-bound vimentin fragments (summary of results)
[4] = biological target: full length human vimentin, recombinant, His-tagged (pET15b, E. coli) (human) (UniProt P08670); test: EIA, plate-bound full length vimentin, hGIIA 5-1000 ng/mL, detection with 4A1-AP
[5] = biological target: vimentin coil 2 fragment (residues 254 to 405), recombinant, His-tagged (human) (UniProt P08670); test: EIA, plate-bound vimentin coil 2, hGIIA 5-1000 ng/mL, detection with 4A1-AP

| Binder | binding [1] | binding [2] | binding [3] | binding [4] | binding [5] |
| --- | --- | --- | --- | --- | --- |
| B1 | binds |  |  |  |  |
| B2 |  | binds | binds | binds | binds |
